Data published in PubChem BioAssay AID504467 (National Center for Advancing Translational Sciences (NCATS), 2011).
About 7,700 (2.3%) of roughly 330,000 compounds were called active. The inconclusive results got no clear call from the source; some entries with a clear call stand among them for comparison. Calls come from the whole dose curve; as a rule, active = well fitted inhibition curve with a large enough effect; inconclusive = small, poorly fitted or top-dose-only effect, or effect the other way; inactive = flat fitted curve, though single readings scatter. Potencies beside an inconclusive call are fits to weak or partial responses and may not hold up.

Assay: qHTS screen for small molecules that inhibit ELG1-dependent DNA repair in human embryonic kidney (HEK293T) cells expressing luciferase-tagged ELG1; note: nearly all actives have a fitted effect of over 55% in size
Conditions: HEK293T ELG1-luciferase reporter, luminescence, 16 h, DNA damage induced by 5-fluorouridine; series mostly up to 46.1 µM
Procedure, shortened: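 Cells (2,000 per well) received 5-fluorouridine plus test compound or DMSO and were incubated 16 hr at 37 °C, 5% CO2. Luciferase activity was read by luminescence 30 min after ONE-Glo addition; signal suppression marked inhibition of damage-induced ELG1 function.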
Potency is the fitted concentration of half-maximal effect.

Row | SMILES | Potency
1 | COc1ccc(-c2ccc(-c3nnc(-c4cc(OC)ccc4OC)o3)cc2)cc1 | inconclusive: 3.26 µM [activator, single point]
2 | O=C(Nc1nccs1)c1ccc(N2C(=O)C3CCCCC3C2=O)cc1 (centres undefined) | inconclusive: 25.9 µM [activator, single point]
3 | CCOc1ccc2nc(NC(=O)CSC3=NCCS3)sc2c1 | inactive
4 | Cc1ncn2cc(-c3ccc(Cl)cc3Cl)[nH]c(=O)c12 | inconclusive: 10.3 µM [inhibitor, partial curve]
5 | COc1ccc(N2CCN(c3cc(C)nc4ccc(OC)cc34)CC2)cc1 | active: 13 µM
6 | Cc1ccc(NC(=O)CC(O)(C(F)(F)F)C(F)(F)F)cc1 | inconclusive: 29.1 µM [inhibitor, single point]
7 | COc1cc(/C=N/Nc2ccccc2[N+](=O)[O-])cc(OC)c1O | inactive
8 | CSc1cccc(NC(=O)C(C)Sc2ccc(C)cc2)c1 (centres undefined) | inconclusive: 29.1 µM [activator, single point]
9 | N/C(=N\OC(=O)c1cc(-c2ccccc2)nc2ccccc12)c1ccccn1 | active: 18.3 µM
10 | C=CCNc1ccccc1S(=O)(=O)NCc1ccccc1 | inactive
11 | CCCCNC(=S)N/N=C/c1ccc(C)s1 | inconclusive: 16.4 µM [activator, single point]
12 | C=CCc1c(C)nc2c(OC)cccc2c1Cl | inconclusive: 18.3 µM [activator, single point]
13 | Cc1ccc(C(NC(=O)N2CCCCC2)=C(Cl)Cl)cc1F | inconclusive: 20.6 µM [inhibitor, partial curve, poor fit]
14 | CC(=O)N1CCN2C(=O)C1CCCC(=O)c1cc(C(C)C)ccc12 (centres undefined) | inconclusive: 18.4 µM [activator, single point]
15 | C=CCN(CC=C)CC(O)CN(c1cc([N+](=O)[O-])ccc1OC)S(=O)(=O)c1ccccc1 (centres undefined) | inactive
16 | COc1cc(/C=N/N2C(=O)c3ccccc3C2=O)ccc1O | inactive
17 | COCCNC(=O)CCc1c(C)nc2nc(-c3cc(OC)cc(OC)c3)nn2c1C | inconclusive: 16.4 µM [inhibitor, single point]
18 | Cc1cc(NC(=O)C2CCCCC2C(=O)O)ccc1NC(=O)c1ccccc1 (centres undefined) | inactive
19 | CCN=C1S/C(=C\c2ccc(OCC)c(OC)c2)C(=O)N1CC | inconclusive: 18.4 µM [inhibitor, single point]
20 | Cc1ccc(-c2[nH]c3ccccc3c2C(C[N+](=O)[O-])c2ccco2)cc1 (centres undefined) | inconclusive: 32.6 µM [inhibitor, single point]
21 | Fc1ccccc1-c1cc2cc3c(cc2cn1)OCO3 | inconclusive: 2.06 µM [activator, full curve]
22 | COc1ccccc1-c1c(-c2ccc(O)cc2O)n[nH]c1C(F)(F)F | active: 5.8 µM
23 | Cc1c(C(=O)NCc2ccccn2)oc2ccc(S(=O)(=O)N3CCOCC3)cc12 | inconclusive: 13 µM [inhibitor, partial curve, poor fit]

Row | SMILES | Potency
24 | COc1cc(Br)cc(CN2CCN(C/C=C/c3ccccc3)CC2)c1O | inconclusive: 35.5 µM [inhibitor, single point]
25 | N#Cc1cc([N+](=O)[O-])ccc1NC(=O)CSc1n[nH]c(=O)n1C1CC1 | inconclusive: 20.6 µM [inhibitor, single point]
26 | O=C(Nc1ccnn1C1CCN(Cc2cc3ccccc3[nH]2)CC1)C1CCOC1 (centres undefined) | inconclusive: 29.1 µM [activator, partial curve, poor fit]
27 | Cc1cc(C)c(S(=O)(=O)NC2CC(C)(C)NC(C)(C)C2)cc1Br | inactive
28 | Cc1ccc(-c2csc3nc(SCC(=O)N(C)C)n(Cc4ccccc4)c(=O)c23)cc1 | active: 20.6 µM
29 | CCC1CCCCN1CCCNC(=O)CSc1nc2nc(C)c(Cc3ccccc3)c(C)n2n1 (centres undefined) | inactive
30 | COc1ccc(C(=O)Nc2ccc3c(c2)C(=O)N(C)C3=O)cc1OC | inactive
31 | O=C(Oc1ccc(Nc2ncnc3ccccc23)cc1)c1cccnc1 | inactive
32 | Cc1nc(N2CCC(C(N)=O)CC2)c2c(-c3cccs3)csc2n1 | inconclusive: 13 µM [inhibitor, partial curve]
33 | COc1ccc(CCNC(=O)c2c(C)nc3ccccn23)cc1OC | inconclusive: 8.2 µM [inhibitor, partial curve, poor fit]
34 | COc1ccc(NS(=O)(=O)c2cc(NC(=O)CC3CCCC3)ccc2N2CCOCC2)cc1 | inconclusive: 29.1 µM [inhibitor, single point]
35 | CCOC(=O)c1sc(NC(=O)CCCn2nc([N+](=O)[O-])c(Cl)c2C)c(C(=O)OCC)c1C | inconclusive: 14.6 µM [inhibitor, partial curve]
36 | O=C1CCC(C(=O)N2CCSCC2)CN1Cc1cccc(C(F)(F)F)c1 (centres undefined) | inactive
37 | Nc1n[nH]c(-c2ccccc2[N+](=O)[O-])n1 | inconclusive: 18.4 µM [activator, partial curve, poor fit]
38 | Cc1ccc(C(C)NC(=S)NC2CCCCC2)c(C)c1 (centres undefined) | inconclusive: 18.3 µM [inhibitor, single point]
39 | CC(C)CC(=O)Nc1ncc([N+](=O)[O-])s1 | inconclusive: 4.61 µM [activator, single point]
40 | CCC1CCCN1Cn1cnc2c([nH]c3ccc(OC)cc32)c1=O (centres undefined) | inconclusive: 18.4 µM [activator, partial curve, poor fit]
41 | O=C(Nc1ccccn1)c1cccc(S(=O)(=O)N2CCCc3ccccc32)c1 | inconclusive: 23.1 µM [inhibitor, single point]
42 | CC(NC(=O)C1CCN(S(=O)(=O)c2ccc(Br)s2)CC1)c1ccccc1 (centres undefined) | inconclusive: 9.2 µM [inhibitor, partial curve]
43 | Cc1cc(NC(=O)Nc2cc(Cl)sc2Cl)no1 | inactive
44 | Cc1ccc(NC(=O)c2cccnc2)cc1C | inconclusive: 20 µM [activator, single point]
45 | CCC1CCCCN1CCCNC(=O)C1CCC(CNS(=O)(=O)c2c(C)cc(C)cc2C)CC1 (centres undefined) | inconclusive: 16.4 µM [activator, partial curve]
46 | CC(C)(C)c1ccc(NC(=O)COC(=O)C2=COCCO2)cc1 | inconclusive: 23.1 µM [activator, partial curve]

21 compounds out of the list, sorted by SMILES length, descending:
Row | SMILES | Potency
35 | CCOC(=O)c1sc(NC(=O)CCCn2nc([N+](=O)[O-])c(Cl)c2C)c(C(=O)OCC)c1C | inconclusive: 14.6 µM [inhibitor, partial curve]
15 | C=CCN(CC=C)CC(O)CN(c1cc([N+](=O)[O-])ccc1OC)S(=O)(=O)c1ccccc1 (centres undefined) | inactive
45 | CCC1CCCCN1CCCNC(=O)C1CCC(CNS(=O)(=O)c2c(C)cc(C)cc2C)CC1 (centres undefined) | inconclusive: 16.4 µM [activator, partial curve]
28 | Cc1ccc(-c2csc3nc(SCC(=O)N(C)C)n(Cc4ccccc4)c(=O)c23)cc1 | active: 20.6 µM
29 | CCC1CCCCN1CCCNC(=O)CSc1nc2nc(C)c(Cc3ccccc3)c(C)n2n1 (centres undefined) | inactive
23 | Cc1c(C(=O)NCc2ccccn2)oc2ccc(S(=O)(=O)N3CCOCC3)cc12 | inconclusive: 13 µM [inhibitor, partial curve, poor fit]
1 | COc1ccc(-c2ccc(-c3nnc(-c4cc(OC)ccc4OC)o3)cc2)cc1 | inconclusive: 3.26 µM [activator, single point]
41 | O=C(Nc1ccccn1)c1cccc(S(=O)(=O)N2CCCc3ccccc32)c1 | inconclusive: 23.1 µM [inhibitor, single point]
27 | Cc1cc(C)c(S(=O)(=O)NC2CC(C)(C)NC(C)(C)C2)cc1Br | inactive
18 | Cc1cc(NC(=O)C2CCCCC2C(=O)O)ccc1NC(=O)c1ccccc1 (centres undefined) | inactive
36 | O=C1CCC(C(=O)N2CCSCC2)CN1Cc1cccc(C(F)(F)F)c1 (centres undefined) | inactive
14 | CC(=O)N1CCN2C(=O)C1CCCC(=O)c1cc(C(C)C)ccc12 (centres undefined) | inconclusive: 18.4 µM [activator, single point]
24 | COc1cc(Br)cc(CN2CCN(C/C=C/c3ccccc3)CC2)c1O | inconclusive: 35.5 µM [inhibitor, single point]
6 | Cc1ccc(NC(=O)CC(O)(C(F)(F)F)C(F)(F)F)cc1 | inconclusive: 29.1 µM [inhibitor, single point]
31 | O=C(Oc1ccc(Nc2ncnc3ccccc23)cc1)c1cccnc1 | inactive
4 | Cc1ncn2cc(-c3ccc(Cl)cc3Cl)[nH]c(=O)c12 | inconclusive: 10.3 µM [inhibitor, partial curve]
3 | CCOc1ccc2nc(NC(=O)CSC3=NCCS3)sc2c1 | inactive
38 | Cc1ccc(C(C)NC(=S)NC2CCCCC2)c(C)c1 (centres undefined) | inconclusive: 18.3 µM [inhibitor, single point]
10 | C=CCNc1ccccc1S(=O)(=O)NCc1ccccc1 | inactive
12 | C=CCc1c(C)nc2c(OC)cccc2c1Cl | inconclusive: 18.3 µM [activator, single point]
44 | Cc1ccc(NC(=O)c2cccnc2)cc1C | inconclusive: 20 µM [activator, single point]

(cont.)

Row | SMILES | Potency
47 | C=CCn1cnc2c(c1=O)c1nc3ccccc3nc1n2-c1ccccc1 | inactive
48 | Cc1cccc2cc(CN(Cc3ccco3)C(=O)NC3CCCCC3)c(=O)[nH]c12 | active: 7.31 µM
49 | Cc1ccc2nc(NC(=O)CSc3nc4ccccc4o3)sc2c1 | inconclusive: 23.1 µM [activator, single point]
50 | c1ccc2c(c1)nc(NCCN1CCOCC1)c1nncn12 | inconclusive: 25.9 µM [activator, partial curve, poor fit]
51 | CCOC(=O)CSC1=NC(=O)/C(=C\c2ccc(OC(C)=O)cc2)S1 | inconclusive: 18.4 µM [activator, partial curve]
52 | CC1(C)Cc2c(sc(NC(=O)c3ccc4ncsc4c3)c2C(N)=O)C(C)(C)N1 | inconclusive: 20.6 µM [activator, partial curve]
53 | CC(=O)c1ccc(NC(=O)c2ccc(C)c(S(=O)(=O)N3CCOCC3)c2)cc1 | inconclusive: 16.4 µM [inhibitor, partial curve, poor fit]
54 | COc1ccccc1NC(=O)CN1CCC(n2c(C)nc3cc(F)ccc32)CC1 | inconclusive: 14.6 µM [inhibitor, partial curve, poor fit]
55 | CCNC(=O)CC1C(=O)N(CC)C(=S)N1NC(=O)c1ccc(Cl)cc1 (centres undefined) | inactive
56 | COc1cc(C(=O)N[C@H](C(=O)OCC(=O)NC2CCCCCC2)C(C)C)cc(OC)c1OC | inconclusive: 4.61 µM [activator, single point]
57 | CCOc1ccc(Cn2ccnc2)cc1[N+](=O)[O-] | inconclusive: 20.6 µM [activator, partial curve, poor fit]
58 | COc1ccc(-n2cc(CNCCc3cnc[nH]3)c(-c3cccc(F)c3)n2)cc1 | inactive
59 | CCOC(=O)COc1ccc2nsnc2c1Cl | inconclusive: 1.84 µM [inhibitor, partial curve]
60 | CCCCCCCOC(=O)C[N+](C)(C)CCOC1CC2CCC1(C)C2(C)C (centres undefined) | inconclusive: 25.9 µM [inhibitor, partial curve, poor fit]
61 | C=CCn1c(C)cc(C(=O)CSc2nnc(NCc3ccccc3)s2)c1C | inactive
62 | CCCCN(CCCC)c1nc(OC)nc(-n2nnc(C(C)=O)c2C)n1 | inconclusive: 35.5 µM [inhibitor, single point]
63 | Fc1cccc(Cl)c1Cn1ncc2ccccc21 | inconclusive: 14.6 µM [activator, single point]
64 | CN(C)/N=C/c1ccc(Sc2ccc([N+](=O)[O-])cc2[N+](=O)[O-])o1 | inconclusive: 20.6 µM [activator, single point]
65 | COc1ccccc1N1CCN(C(c2cc3ccc(C)cc3[nH]c2=O)c2nnnn2C2CCCC2)CC1 (centres undefined) | inconclusive: 31.6 µM [inhibitor, single point]
66 | O=C(NC1CC2CCCC(C1)N2S(=O)(=O)c1ccccc1)c1ccccc1 (centres undefined) | inconclusive: 23.1 µM [inhibitor, single point]
67 | CCN(Cc1ccccc1)C(=O)Cn1c(=O)oc2ccccc21 | inactive
68 | CC(/C=C/c1ccc(OCc2ccccc2)cc1)=N\O | inconclusive: 6.51 µM [activator, partial curve]
69 | CCOc1ccccc1C(=O)OCC(=O)Nc1cc(Cl)ccc1Oc1ccccc1 | inconclusive: 18.4 µM [inhibitor, partial curve, poor fit]
